Reference: patent publication US12458643B2, “Antidepressant/anxiolytic drug in which PAC1 receptor antagonist is used” (KAGOSHIMA UNIVERSITY, priority 2020, dated 2025)
At least one structure is not confirmed: it was looked up by name or label, or the drawing left a doubt.

Key:
Assay type in all cases: in vivo, mouse
fear-conditioned mice = assay: Fear-conditioned learning model (PTSD model); settings: 30 mg/kg i.p.; 60 minutes later, 3 min contextual stimulus
normal mice = assay: Forced swim test in normal mice; settings: normal male C57BL/6J mice, 30 mg/kg i.p., 60 min after administration, 6 min swim
Description: The effects of PA-8 and PA-81004 on normal mice were evaluated by a forced swim test (test that exploits the switch of mice caused to swim in an inevitable environment from active escape behavior to a passive state of floating or immobility; in this test, depressive-like behavior is evaluated by placing the mice in an acrylic cylinder of 20 cm in diameter and 25 cm in height filled with water (water temperature: 25° C.) up to a depth of 15 cm, and measuring a passive floating or immobility time).
Male C57BL/6J mice (8 to 12 weeks old) were acclimatized to a laboratory (illuminance: 200 lx) for 60 minutes. Then, a vehicle (10% DMSO solution; dissolved in saline; n=9), PA-8 (30 mg/kg; n=9) or PA-81004 (30 mg/kg; n=9) was intraperitoneally administered thereto (0.1 mL/10 g). After a lapse of 60 minutes after administration, the mice were forced to swim for 6 minutes, and an immobility time was measured.
The effects of PA-9 and PA-915 on normal mice were evaluated by the forced swim test.
Male C57BL/6J mice (8 to 12 weeks old) were acclimatized to a laboratory (illuminance: 200 lx) for 60 minutes. […] After a lapse of 60 minutes after administration, the mice were forced to swim for 6 minutes, and an immobility time was measured.

[1] = system: chronically corticosterone-administered model mice; assay: Repeated corticosterone administration, forced swim test; settings: corticosterone 20 mg/kg s.c. 21 days, 24 hours later
Description: Chronically corticosterone-administered model mice are model mice that mimic high plasma corticosterone levels associated with the hyperactivation of the hypothalamic-pituitary-adrenal system under pathological stress, and are generally used as depression model mice.
A vehicle (0.5% carboxymethylcellulose solution) or corticosterone (20 mg/kg) was subcutaneously administered (0.1 mL/10 g) to male C57BL/6J mice (6 weeks old) for 21 days. A vehicle (10% DMSO solution; dissolved in saline; n=11), PA-915 (30 mg/kg; n=13), ketamine (20 mg/kg; n=13) or fluoxetine (20 mg/kg; n=15) was intraperitoneally administered thereto (0.1 mL/10 g) 3 hours after administration on the 21st day. The mice were forced to swim for 6 minutes 24 hours later, and an immobility time was measured. Mice given the vehicle by repeated administration without repeated corticosterone administration were used as a control (n=11). The data was indicated by mean±standard error. **P<0.01 (One-way ANOVA followed by Tukey-Kramer test).
A vehicle (0.5% carboxymethylcellulose solution) or corticosterone (20 mg/kg) was subcutaneously administered (0.1 mL/10 g) to female C57BL/6J mice (9 weeks old) for 21 days. […] The mice were forced to swim for 6 minutes 24 hours later, and an immobility time was measured. […]

[2] = system: chronic social defeat stress mice; assay: Chronic social defeat stress, forced swim test
[3] = system: single-restraint stress mice; assay: Single-restraint stress-induced anxiety-like behavior, open field test; settings: 30 mg/kg i.p. 30 min before 30 min restraint; 10 min test
Description: Male C57BL/6J mice (8 to 12 weeks old) were acclimatized to a laboratory (illuminance: 40 lx) for 60 minutes. Then, a vehicle (10% DMSO solution; dissolved in saline; n=11), PA-8 (30 mg/kg; n=11) or PA-81004 (30 mg/kg; n=8) was intraperitoneally administered thereto (0.1 mL/10 g). After a lapse of 30 minutes after administration, restraint stress (stress caused by holding the mice in tubes of 2.8 cm in diameter with a hole for breathing) was applied thereto for 30 minutes. The mice were allowed to freely explore an open field cage for 10 minutes from immediately after the completion of restraint. Mice that freely behaved in a home cage for 30 minutes without being held and without accessing water and food were used as a control (n=10). The results are shown in FIG. 9 (A: total distance traveled, B: the number of center zone entries, C: time spent in the center zone). The data was indicated by mean±standard error. **P<0.01, *P<0.05 (One-way ANOVA followed by Tukey-Kramer test). […] Male C57BL/6J mice (8 to 12 weeks old) were acclimatized to a laboratory (illuminance: 40 lx) for 60 minutes. Then, a vehicle (10% DMSO solution; dissolved in saline; n=10), PA-9 (30 mg/kg; n=13) or PA-915 (30 mg/kg; n=12) was intraperitoneally administered thereto (0.1 mL/10 g). […]

## O=C(NCCc1c[nH]cn1)C1CC(=O)N(c2n[nH]c3c(Cl)cccc23)C1 (stereo not shown) [PA-915, N-[2-(1H-imidazol-4-yl)ethyl]-1-(7-chloro-1H-indazol-3-yl)-5-oxo-3-pyrrolidinecarboxamide]
fear-conditioned mice
  fear memory retrieval (freezing rate): significantly suppressed fear memory retrieval
Normal mice
  pharmacological action in forced swim test (immobility time): no pharmacological action
[1]; female mice, 30 mg/kg i.p.
  effect on depressive-like behavior (forced swim test, immobility time): improved depressive-like behavior
[1]; male mice, single i.p. PA-915 30 mg/kg, ketamine 20 mg/kg, fluoxetine 20 mg/kg
  effect on depressive-like behavior (forced swim test, immobility time): improved depressive-like behavior
[2]; 30 mg/kg i.p. single dose Day 12, test Day 13
  effect on depressive-like behavior (forced swim test, immobility time): improving effect
[2]; 30 mg/kg oral Day 12, test Day 15
  effect on depressive-like behavior (forced swim test): significant improving effect
[3]
  effect on single-restraint stress-induced anxiety-like behavior (open field test): improving effects
